# According to article doi:10.1101/2020.05.13.094391:
# Amino acid sequences for entries named in this document (tags omitted).
# UniProt Q12888: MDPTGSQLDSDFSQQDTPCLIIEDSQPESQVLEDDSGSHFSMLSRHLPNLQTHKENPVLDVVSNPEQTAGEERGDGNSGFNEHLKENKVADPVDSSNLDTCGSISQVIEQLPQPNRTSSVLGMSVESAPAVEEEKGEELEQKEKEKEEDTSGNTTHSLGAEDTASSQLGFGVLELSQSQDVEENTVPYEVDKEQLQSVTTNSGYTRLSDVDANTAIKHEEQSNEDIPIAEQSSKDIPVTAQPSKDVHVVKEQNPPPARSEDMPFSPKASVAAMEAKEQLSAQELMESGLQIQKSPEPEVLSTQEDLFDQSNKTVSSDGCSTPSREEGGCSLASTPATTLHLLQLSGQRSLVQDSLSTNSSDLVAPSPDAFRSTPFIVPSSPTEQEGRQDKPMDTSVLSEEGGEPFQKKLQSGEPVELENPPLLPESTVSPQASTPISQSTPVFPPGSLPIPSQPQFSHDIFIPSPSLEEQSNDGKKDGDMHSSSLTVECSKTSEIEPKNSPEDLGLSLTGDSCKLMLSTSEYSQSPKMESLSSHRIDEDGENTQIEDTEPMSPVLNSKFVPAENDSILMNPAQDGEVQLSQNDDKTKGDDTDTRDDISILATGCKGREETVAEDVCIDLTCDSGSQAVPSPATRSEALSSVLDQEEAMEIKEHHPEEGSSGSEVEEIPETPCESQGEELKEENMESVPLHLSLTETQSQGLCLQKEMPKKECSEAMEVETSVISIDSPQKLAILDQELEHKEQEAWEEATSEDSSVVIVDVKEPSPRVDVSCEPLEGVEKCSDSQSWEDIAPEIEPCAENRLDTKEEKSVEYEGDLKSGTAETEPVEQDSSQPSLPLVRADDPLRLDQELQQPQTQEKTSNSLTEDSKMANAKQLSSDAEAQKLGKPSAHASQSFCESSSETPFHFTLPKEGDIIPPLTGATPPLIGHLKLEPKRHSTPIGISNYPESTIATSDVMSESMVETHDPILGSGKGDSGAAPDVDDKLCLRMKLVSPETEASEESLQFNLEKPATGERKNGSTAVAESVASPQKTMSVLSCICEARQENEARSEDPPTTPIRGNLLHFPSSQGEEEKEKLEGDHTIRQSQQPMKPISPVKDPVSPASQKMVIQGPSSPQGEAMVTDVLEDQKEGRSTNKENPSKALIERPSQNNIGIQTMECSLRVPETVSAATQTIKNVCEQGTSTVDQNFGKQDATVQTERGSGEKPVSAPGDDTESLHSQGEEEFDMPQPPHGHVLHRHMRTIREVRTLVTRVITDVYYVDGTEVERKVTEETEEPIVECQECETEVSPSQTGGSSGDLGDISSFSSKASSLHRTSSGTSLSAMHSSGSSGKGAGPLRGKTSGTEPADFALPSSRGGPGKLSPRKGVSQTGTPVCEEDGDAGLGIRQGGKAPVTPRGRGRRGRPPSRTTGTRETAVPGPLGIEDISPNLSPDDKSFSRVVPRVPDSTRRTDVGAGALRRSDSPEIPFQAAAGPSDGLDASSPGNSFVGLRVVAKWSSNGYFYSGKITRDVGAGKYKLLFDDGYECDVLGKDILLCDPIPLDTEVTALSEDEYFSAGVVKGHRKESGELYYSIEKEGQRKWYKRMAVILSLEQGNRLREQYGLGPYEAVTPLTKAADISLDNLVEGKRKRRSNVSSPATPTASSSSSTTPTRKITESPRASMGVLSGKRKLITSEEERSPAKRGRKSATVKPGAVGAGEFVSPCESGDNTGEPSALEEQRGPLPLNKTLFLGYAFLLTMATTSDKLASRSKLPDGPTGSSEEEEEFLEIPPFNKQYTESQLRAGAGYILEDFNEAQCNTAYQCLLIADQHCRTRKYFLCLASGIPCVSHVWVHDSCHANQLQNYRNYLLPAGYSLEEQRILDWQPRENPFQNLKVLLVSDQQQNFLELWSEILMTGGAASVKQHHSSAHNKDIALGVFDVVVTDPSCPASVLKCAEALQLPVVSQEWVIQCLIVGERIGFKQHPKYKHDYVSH
# UniProt Q13547: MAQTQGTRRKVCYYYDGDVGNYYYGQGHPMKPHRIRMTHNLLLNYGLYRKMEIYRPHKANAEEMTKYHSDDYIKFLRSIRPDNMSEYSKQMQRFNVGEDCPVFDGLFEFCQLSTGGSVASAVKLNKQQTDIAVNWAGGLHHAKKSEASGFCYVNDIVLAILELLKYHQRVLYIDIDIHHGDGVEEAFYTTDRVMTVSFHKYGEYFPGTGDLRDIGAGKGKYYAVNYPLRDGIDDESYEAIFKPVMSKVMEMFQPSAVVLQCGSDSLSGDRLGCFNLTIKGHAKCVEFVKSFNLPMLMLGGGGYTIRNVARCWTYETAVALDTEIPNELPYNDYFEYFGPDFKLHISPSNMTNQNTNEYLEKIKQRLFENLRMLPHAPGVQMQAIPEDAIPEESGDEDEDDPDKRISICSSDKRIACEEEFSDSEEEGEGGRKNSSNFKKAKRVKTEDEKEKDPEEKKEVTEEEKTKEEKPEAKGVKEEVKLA
# UniProt Q92769: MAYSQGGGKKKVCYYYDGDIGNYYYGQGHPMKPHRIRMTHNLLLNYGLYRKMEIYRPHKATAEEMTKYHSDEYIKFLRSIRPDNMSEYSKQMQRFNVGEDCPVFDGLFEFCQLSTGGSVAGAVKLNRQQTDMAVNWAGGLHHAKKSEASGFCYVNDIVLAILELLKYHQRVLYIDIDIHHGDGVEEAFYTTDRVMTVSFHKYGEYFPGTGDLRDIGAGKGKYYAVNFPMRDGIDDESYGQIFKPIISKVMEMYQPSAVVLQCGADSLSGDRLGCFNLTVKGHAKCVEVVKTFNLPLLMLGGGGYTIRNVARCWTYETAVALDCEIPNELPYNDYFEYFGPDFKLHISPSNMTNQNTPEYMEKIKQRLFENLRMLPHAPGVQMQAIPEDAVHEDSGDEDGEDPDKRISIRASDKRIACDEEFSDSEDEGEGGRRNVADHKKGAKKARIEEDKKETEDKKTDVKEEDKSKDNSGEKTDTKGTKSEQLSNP
# No constants are given. Whether binding was seen depends on the method and setting. In cells and extracts the contact can be indirect. Some entries that bind do so weakly or less than the wild type.
# Assays:
# [1] = molecular target: 53BP1, endogenous (human (endogenous in U2OS)) (UniProt Q12888); experiment: co-IP
# [2] = molecular target: T1, ZEB1, endogenous (human (endogenous in U2OS)) (UniProt P37275); experiment: co-IP
# T1 sequence: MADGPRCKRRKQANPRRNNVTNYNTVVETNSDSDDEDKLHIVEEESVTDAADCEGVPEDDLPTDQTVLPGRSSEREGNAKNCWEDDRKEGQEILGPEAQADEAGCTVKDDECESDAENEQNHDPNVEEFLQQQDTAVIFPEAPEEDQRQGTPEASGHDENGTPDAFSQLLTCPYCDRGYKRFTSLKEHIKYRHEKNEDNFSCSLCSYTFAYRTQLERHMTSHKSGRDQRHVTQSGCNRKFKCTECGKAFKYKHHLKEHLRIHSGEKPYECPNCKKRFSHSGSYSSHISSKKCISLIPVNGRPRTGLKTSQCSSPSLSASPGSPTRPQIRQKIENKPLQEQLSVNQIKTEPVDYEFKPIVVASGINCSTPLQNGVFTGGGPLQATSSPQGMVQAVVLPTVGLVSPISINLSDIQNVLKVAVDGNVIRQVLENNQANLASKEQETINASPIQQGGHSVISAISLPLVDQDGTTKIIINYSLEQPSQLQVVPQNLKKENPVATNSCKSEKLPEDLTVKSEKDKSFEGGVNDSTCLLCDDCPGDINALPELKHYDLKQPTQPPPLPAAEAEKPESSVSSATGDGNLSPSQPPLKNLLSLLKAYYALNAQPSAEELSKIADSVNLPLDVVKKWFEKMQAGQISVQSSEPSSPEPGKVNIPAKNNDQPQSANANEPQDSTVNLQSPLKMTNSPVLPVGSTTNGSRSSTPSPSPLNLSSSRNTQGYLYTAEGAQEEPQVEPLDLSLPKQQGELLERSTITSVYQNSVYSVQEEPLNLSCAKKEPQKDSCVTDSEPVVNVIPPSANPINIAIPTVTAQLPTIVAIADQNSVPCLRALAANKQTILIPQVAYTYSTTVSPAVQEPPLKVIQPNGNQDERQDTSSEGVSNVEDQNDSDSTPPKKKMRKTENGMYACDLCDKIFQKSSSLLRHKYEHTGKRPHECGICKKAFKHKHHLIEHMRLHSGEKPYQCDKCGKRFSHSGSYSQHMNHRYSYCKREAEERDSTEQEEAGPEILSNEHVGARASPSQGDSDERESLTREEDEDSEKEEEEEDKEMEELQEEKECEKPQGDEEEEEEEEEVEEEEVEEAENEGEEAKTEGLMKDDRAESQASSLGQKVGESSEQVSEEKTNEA
Substance,binding [1],binding [2]
"histone deacetylase 1, endogenous (from UniProt Q13547 1-482)",binds,binds
"53BP1, endogenous (from UniProt Q12888 1-1972)",–,binds
"histone deacetylase 2, endogenous (from UniProt Q92769 1-488)",–,binds
